Here are results for three compounds from patent US20250032430A1, “USES OF RHODOQUINONE FOR THE TREATMENT OF DISEASE” (Whitehead Institute for Biomedical Research, priority 2021, published 2025).

“Also recorded” adds a separate entry of the source.

A short description of this data set: Quinone detection by mass spectrometry in mouse tissues and feces. The following applies: for detection in mitochondria isolated from mouse tissues / detection in feces, stool and cecum: endogenous; for detection in mitochondria isolated from mouse tissues: mass spectrometry; for detection in feces, stool and cecum: mouse.

Turning to rhodoquinone-9, the “detection in mitochondria isolated from mouse tissues” value (shortened to “detection in mitochondria isolated”) is “only detected in abundance in mouse kidney, liver, duodenum, jejunum, and colon”; the “detection in feces, stool and cecum” value is given as “in mouse feces”. Moreover, the “level in kidney mitochondria” value (germ-free mice) is “substantially depleted”. The “level in kidney mitochondria” value (wild-type mice) is on record as “detected”.
rhodoquinone: the “detection in mitochondria isolated” value was “detected in kidney, liver, and brain; also recorded: detected at high levels in many tissues”; the “detection in feces, stool and cecum” value is “detected in the stool and cecum”.
As to `COC1=C(OC)C(=O)C(C/C=C(\C)CC/C=C(\C)CC/C=C(\C)CC/C=C(\C)CC/C=C(\C)CC/C=C(\C)CC/C=C(\C)CC/C=C(\C)CCC=C(C)C)=C(C)C1=O` [Ubiquinone-9, ubiquinone-9], the “detection in mitochondria isolated” value was “detected in all mouse tissues”.
